We go through 28 targets from the supplement of paper PMC12819154, “High-throughput peptide-centric local stability assay extends protein–ligand identification to membrane proteins, tissues and bacteria” (Nature Structural & Molecular Biology, 2025).

By UniProt entry, the sequences of proteins in these tests, tags left out. Where a name states a change or a piece, a line headed by the entry shows the natural chain unless it says otherwise.
UniProt P14324: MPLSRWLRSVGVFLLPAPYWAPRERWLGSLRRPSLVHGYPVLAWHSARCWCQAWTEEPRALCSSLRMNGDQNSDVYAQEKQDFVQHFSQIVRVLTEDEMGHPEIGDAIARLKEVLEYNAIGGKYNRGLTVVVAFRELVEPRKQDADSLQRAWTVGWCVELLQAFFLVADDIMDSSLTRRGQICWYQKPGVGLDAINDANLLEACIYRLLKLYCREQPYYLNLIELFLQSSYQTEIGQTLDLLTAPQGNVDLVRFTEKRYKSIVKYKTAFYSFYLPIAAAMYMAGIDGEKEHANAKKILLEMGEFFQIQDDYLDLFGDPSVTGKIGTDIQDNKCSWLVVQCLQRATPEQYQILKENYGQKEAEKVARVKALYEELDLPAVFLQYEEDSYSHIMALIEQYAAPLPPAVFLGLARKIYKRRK
UniProt P25791: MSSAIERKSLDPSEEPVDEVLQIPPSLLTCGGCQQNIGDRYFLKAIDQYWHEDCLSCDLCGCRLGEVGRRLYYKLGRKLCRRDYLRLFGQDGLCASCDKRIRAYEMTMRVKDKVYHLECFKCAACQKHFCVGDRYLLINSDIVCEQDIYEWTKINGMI
UniProt P18887, whole entry: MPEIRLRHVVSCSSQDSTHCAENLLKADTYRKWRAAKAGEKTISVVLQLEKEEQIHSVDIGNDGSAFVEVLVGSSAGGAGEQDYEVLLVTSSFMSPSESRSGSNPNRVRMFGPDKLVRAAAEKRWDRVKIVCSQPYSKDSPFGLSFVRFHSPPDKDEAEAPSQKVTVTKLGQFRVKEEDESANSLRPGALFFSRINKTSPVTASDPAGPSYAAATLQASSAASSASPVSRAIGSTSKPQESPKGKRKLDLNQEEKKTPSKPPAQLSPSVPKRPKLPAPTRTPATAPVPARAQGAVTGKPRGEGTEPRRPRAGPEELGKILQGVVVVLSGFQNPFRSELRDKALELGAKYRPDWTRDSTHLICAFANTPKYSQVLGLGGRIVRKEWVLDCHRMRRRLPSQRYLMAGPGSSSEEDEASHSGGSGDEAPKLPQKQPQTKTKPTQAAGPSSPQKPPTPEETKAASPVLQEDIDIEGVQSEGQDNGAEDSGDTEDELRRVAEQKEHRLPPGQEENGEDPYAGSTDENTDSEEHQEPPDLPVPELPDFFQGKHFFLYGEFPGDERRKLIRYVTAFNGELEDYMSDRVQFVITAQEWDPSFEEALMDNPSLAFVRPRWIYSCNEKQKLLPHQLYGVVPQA
UniProt P26583: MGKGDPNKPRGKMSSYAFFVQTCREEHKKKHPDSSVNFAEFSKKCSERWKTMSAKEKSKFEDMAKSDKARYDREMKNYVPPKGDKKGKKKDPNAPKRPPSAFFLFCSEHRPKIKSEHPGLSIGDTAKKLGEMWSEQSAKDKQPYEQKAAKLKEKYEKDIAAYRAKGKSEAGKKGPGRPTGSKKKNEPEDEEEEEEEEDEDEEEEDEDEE
UniProt P18206: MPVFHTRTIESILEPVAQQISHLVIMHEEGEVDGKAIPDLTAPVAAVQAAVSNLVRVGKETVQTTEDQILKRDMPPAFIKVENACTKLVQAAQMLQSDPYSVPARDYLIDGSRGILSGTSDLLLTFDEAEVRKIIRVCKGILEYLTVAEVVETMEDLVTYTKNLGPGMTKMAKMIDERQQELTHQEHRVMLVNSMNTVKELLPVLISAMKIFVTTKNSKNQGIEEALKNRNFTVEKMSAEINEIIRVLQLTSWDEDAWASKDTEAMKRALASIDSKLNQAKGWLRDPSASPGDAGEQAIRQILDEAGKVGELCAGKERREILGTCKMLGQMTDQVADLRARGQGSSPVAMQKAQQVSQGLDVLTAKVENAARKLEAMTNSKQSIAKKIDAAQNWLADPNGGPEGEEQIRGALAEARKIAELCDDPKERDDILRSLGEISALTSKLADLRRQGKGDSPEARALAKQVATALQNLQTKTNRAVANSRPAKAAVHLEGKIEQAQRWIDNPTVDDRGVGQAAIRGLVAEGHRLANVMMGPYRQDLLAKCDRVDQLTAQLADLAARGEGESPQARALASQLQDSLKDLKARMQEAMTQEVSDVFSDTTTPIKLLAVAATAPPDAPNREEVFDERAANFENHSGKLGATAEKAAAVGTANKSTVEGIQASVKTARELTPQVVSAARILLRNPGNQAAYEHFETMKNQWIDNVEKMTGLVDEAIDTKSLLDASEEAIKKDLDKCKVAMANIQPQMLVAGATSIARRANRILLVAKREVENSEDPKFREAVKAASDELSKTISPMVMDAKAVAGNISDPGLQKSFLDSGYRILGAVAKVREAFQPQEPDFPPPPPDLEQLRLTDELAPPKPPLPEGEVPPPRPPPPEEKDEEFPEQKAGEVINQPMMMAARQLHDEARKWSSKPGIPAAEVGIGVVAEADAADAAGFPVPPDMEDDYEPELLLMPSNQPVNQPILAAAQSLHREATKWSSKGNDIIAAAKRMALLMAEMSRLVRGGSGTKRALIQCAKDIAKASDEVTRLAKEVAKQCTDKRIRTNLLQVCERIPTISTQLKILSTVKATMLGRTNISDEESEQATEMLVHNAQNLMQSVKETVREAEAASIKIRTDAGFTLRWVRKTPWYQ
UniProt P27816: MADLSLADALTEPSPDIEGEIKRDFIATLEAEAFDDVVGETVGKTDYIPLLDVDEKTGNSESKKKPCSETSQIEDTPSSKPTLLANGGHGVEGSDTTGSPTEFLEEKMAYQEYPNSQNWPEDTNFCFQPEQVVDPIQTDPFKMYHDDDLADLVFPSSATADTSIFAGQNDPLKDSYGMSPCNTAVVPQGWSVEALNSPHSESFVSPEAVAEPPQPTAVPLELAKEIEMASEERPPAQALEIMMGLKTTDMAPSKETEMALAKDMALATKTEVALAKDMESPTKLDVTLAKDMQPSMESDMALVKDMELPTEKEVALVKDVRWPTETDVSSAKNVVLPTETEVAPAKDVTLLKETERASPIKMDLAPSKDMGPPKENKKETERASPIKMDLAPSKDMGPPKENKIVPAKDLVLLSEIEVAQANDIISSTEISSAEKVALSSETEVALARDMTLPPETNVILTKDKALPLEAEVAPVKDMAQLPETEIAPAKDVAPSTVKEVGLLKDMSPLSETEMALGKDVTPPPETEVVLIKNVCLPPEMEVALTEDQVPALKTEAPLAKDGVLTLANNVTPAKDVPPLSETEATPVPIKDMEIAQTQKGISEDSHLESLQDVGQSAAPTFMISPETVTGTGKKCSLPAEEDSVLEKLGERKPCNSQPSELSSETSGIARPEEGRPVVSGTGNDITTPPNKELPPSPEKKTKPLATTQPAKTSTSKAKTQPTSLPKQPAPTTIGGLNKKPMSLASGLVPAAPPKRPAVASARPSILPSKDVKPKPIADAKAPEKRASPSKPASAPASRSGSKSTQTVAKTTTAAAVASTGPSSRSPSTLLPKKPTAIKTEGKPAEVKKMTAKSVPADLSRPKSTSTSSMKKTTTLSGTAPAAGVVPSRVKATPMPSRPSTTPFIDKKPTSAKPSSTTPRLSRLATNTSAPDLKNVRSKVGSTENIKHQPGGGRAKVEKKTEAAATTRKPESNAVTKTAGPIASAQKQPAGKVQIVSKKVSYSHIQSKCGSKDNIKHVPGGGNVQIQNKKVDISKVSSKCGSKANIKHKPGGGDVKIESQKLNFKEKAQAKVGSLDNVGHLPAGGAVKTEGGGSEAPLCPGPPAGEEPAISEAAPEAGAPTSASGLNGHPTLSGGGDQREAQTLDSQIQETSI
UniProt P14868: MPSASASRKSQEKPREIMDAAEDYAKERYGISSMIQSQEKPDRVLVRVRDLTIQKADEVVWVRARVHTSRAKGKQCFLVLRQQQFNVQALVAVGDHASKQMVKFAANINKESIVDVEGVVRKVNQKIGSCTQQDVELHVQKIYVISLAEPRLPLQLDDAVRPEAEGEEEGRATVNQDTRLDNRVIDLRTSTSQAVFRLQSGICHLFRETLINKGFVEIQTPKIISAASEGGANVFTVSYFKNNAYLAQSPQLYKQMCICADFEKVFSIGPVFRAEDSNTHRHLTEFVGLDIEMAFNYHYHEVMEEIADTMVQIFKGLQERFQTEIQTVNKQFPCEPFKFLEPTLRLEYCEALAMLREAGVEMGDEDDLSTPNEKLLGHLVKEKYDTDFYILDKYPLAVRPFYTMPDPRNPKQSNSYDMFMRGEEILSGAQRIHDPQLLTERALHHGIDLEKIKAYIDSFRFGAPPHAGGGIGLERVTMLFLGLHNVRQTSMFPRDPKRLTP
UniProt P27361, whole entry: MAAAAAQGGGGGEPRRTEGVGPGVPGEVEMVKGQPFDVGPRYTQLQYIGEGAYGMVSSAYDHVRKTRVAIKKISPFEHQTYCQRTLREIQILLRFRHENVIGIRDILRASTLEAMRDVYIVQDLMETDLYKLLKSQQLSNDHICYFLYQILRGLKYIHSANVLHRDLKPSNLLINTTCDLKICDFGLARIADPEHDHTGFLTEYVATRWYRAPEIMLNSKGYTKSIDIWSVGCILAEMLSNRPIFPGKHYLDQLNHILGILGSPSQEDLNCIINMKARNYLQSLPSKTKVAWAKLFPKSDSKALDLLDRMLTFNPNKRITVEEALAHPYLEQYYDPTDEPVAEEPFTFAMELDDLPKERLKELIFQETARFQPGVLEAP
UniProt P16083: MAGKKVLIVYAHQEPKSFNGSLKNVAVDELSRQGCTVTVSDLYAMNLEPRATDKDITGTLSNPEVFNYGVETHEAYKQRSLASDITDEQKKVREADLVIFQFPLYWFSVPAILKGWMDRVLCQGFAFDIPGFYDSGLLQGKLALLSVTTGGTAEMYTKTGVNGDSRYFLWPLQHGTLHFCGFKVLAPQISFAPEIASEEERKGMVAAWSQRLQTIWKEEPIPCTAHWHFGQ
UniProt P22234: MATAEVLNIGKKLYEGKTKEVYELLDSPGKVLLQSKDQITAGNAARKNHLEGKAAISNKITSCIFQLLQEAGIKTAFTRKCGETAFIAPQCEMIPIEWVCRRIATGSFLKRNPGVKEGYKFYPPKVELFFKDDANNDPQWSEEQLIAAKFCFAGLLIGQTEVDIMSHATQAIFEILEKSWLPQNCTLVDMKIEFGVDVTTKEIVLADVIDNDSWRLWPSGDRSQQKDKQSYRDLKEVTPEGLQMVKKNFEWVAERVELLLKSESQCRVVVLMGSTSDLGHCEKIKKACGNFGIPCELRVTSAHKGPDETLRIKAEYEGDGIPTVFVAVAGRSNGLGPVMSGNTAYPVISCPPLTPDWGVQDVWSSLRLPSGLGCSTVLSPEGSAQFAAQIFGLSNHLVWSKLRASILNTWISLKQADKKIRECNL
UniProt P16989, whole entry: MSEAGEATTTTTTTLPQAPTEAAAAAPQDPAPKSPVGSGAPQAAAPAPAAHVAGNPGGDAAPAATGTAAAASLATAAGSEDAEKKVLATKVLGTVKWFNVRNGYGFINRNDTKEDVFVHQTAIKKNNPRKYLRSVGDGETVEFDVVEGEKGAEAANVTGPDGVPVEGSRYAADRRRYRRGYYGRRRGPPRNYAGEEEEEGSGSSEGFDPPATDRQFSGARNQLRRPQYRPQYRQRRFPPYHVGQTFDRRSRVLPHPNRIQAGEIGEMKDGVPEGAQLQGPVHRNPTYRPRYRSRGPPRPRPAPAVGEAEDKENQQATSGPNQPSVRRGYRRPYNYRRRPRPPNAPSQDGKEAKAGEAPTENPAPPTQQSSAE
UniProt P17655: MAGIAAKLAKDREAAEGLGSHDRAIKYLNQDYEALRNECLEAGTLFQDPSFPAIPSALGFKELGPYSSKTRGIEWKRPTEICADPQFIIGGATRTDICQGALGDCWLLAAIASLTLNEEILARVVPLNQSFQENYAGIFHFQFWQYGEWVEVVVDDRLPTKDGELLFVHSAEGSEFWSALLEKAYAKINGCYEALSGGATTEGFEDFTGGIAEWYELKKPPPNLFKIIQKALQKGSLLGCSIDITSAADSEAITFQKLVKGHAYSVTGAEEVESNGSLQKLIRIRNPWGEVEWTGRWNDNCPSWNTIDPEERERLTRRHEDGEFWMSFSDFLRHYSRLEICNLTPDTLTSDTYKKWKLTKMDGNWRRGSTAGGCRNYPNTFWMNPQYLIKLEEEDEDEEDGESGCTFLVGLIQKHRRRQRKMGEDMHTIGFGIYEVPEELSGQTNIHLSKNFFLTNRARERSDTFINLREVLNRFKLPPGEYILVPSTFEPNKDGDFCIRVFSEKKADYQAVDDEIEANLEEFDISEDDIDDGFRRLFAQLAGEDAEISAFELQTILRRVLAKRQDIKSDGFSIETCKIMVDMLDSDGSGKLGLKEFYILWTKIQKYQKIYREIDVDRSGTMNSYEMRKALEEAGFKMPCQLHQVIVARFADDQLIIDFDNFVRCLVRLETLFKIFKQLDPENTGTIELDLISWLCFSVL
UniProt P24539: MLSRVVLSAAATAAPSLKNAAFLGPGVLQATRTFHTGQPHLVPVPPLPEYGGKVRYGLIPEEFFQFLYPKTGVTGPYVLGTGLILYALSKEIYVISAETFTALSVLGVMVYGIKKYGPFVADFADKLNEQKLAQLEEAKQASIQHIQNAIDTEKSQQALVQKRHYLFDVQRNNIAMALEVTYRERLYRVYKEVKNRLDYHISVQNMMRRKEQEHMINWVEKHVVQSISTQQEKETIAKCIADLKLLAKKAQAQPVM

Some of the results follow. Most entries show no effect beyond the scatter of the controls.

Compound in this test: Cc1nc(Nc2ncc(C(=O)Nc3c(C)cccc3Cl)s2)cc(N2CCN(CCO)CC2)n1 [dasatinib]
Briefly: log2 fold change of tryptic peptide abundance, ligand vs vehicle (limited proteolysis) (log2 ratio); higher = more trypsin-susceptible (destabilized). The note with it: ligand concentration: 5 uM; sample: K562 cleared lysate.
Consider “FDPS (peptide sequence: LKEVLEYNAIGGKYNR, peptide start residue: 111) (UniProt P14324)”, for which the log2 fold change was -0.189.

Take “SP100 (peptide sequence: VECQAQAR, peptide start residue: 307) (UniProt P23497)”: the log2 fold change was 0.161.

In the case of “LMO2 (peptide sequence: AYEMTMR, peptide start residue: 103) (UniProt P25791)”, the log2 fold change worked out at 0.0758.

With “XRCC1 (peptide sequence: WIYSCNEK, peptide start residue: 611) (UniProt P18887)”, the log2 fold change was -0.122.

Take “HMGB2 (peptide sequence: SKFEDMAK, peptide start residue: 58) (UniProt P26583)”: the log2 fold change was determined as 0.0845.

Turning to “AGA (peptide sequence: RGEDPTIACQK, peptide start residue: 278) (UniProt P20933)”, the log2 fold change amounted to 0.611.

For “VCL (peptide sequence: QVATALQNLQTK, peptide start residue: 465) (UniProt P18206)”, the log2 fold change came out at 0.254.

Turning to “SMARCA1 (peptide sequence: LAKEEMLQMIR, peptide start residue: 660) (UniProt P28370)”, the log2 fold change is -0.442.

“MAP4 (peptide sequence: TTDMAPSKETEMALAKDMALATK, peptide start residue: 247) (UniProt P27816)”: the log2 fold change is -0.311.

For “DARS (peptide sequence: QTSMFPRDPKR, peptide start residue: 488) (UniProt P14868)”, the log2 fold change was 0.379.

Regarding “ITGB5 (peptide sequence: DDLDNIR, peptide start residue: 152) (UniProt P18084)”, the log2 fold change is 0.0476.

On to “CBR1 (peptide sequence: FVEDTKK, peptide start residue: 175) (UniProt P16152)”, for which the log2 fold change turned out to be 0.187.

Turning to “UniProt P20823 (peptide sequence: VYNWFANR, peptide start residue: 326)”, the log2 fold change was 0.0837.

For the target “TRIM21 (peptide sequence: GGGSVCPVCR, peptide start residue: 46) (UniProt P19474)”, the log2 fold change stood at 0.252.

In the case of “HNRNPL (peptide sequence: LCFSTAQHAS, peptide start residue: 580) (UniProt P14866)”, the log2 fold change came out at 0.0831.

“ACO1 (peptide sequence: NQDLEFER, peptide start residue: 142) (UniProt P21399)”: the log2 fold change is -0.392.

Turning to “UniProt P27361 (peptide sequence: LKELIFQETAR, peptide start residue: 360)”, the log2 fold change was -0.202.

For the target “UniProt P27448 (peptide sequence: IPFYMSTDCENLLKR, peptide start residue: 272)”, the log2 fold change was 0.682.

Take “NQO2 (peptide sequence: SLASDITDEQKK, peptide start residue: 80) (UniProt P16083)”: the log2 fold change was -0.425.

Regarding “PAICS (peptide sequence: EVYELLDSPGKVLLQSK, peptide start residue: 20) (UniProt P22234)”, the log2 fold change was found to be 0.335.

For the target “UniProt P16989 (peptide sequence: DGVPEGAQLQGPVHRNPTYRPR, peptide start residue: 269)”, the log2 fold change was determined as 0.383.

As for “ATF6 (peptide sequence: IQVNSKPSIQPKPLLLPAAPK, peptide start residue: 171) (UniProt P18850)”, the log2 fold change is -0.389.

Consider “FER (peptide sequence: MSAPQHCPEDISK, peptide start residue: 779) (UniProt P16591)”, for which the log2 fold change is -0.585.

For “PSMB4 (peptide sequence: AIHSWLTR, peptide start residue: 132) (UniProt P28070)”, the log2 fold change amounted to 0.0213.

Consider “TNFRSF1B (peptide sequence: VPHLPADK, peptide start residue: 300) (UniProt P20333)”, for which the log2 fold change is -0.0508.

Consider “CAPN2 (peptide sequence: KALEEAGFKMPCQLHQVIVAR, peptide start residue: 629) (UniProt P17655)”, for which the log2 fold change is -0.523.

As to “ERCC3 (peptide sequence: LNKPYIYGPTSQGER, peptide start residue: 575) (UniProt P19447)”, the log2 fold change is -0.152.

As to “UniProt P24539 (peptide sequence: HVVQSISTQQEKETIAK, peptide start residue: 222)”, the log2 fold change is -0.576.
